In the supplement of paper PMC10849652:
This is one part of the list.

Protein sequences, listed by entry. Tags and fused reporters are not part of them. Lines headed by an entry give the natural chain unless they say otherwise; changes in a name come on top.
UniProt Q9UBI6: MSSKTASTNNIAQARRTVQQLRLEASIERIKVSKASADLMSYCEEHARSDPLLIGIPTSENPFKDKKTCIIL
UniProt Q9NWQ4: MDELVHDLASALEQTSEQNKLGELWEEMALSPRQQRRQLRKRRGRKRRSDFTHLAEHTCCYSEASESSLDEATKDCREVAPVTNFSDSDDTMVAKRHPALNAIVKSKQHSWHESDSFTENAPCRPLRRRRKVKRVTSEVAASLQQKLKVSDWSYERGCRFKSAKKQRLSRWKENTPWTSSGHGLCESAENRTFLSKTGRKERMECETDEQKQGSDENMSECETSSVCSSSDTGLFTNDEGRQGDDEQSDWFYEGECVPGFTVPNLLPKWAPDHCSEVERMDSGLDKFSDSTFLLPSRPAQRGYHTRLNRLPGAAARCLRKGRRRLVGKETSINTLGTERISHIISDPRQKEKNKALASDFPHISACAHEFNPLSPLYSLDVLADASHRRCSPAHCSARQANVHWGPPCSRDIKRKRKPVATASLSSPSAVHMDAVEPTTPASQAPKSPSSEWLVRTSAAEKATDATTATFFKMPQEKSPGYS
UniProt Q6ZS86: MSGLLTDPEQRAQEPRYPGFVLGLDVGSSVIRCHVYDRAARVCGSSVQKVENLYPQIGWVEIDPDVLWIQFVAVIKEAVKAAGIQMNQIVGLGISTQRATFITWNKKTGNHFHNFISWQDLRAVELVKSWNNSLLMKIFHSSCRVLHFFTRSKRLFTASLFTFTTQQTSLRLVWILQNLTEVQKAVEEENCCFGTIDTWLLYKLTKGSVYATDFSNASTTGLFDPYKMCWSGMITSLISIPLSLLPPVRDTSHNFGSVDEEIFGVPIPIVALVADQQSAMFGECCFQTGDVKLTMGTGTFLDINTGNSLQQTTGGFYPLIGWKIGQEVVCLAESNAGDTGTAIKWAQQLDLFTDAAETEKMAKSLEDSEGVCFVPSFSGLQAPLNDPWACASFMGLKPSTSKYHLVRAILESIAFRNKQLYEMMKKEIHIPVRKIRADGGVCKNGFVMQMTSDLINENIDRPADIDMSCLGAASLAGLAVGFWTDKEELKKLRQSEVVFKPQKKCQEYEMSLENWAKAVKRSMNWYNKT
UniProt Q15743: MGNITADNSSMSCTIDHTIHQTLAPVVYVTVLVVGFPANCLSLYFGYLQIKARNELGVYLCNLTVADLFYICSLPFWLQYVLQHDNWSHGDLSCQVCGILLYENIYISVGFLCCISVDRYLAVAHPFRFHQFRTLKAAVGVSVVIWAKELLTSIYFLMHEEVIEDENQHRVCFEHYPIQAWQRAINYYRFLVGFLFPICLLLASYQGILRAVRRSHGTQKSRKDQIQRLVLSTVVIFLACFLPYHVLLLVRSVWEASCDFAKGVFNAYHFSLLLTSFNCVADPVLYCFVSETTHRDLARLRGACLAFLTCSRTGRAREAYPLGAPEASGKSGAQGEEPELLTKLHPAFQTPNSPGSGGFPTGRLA
UniProt Q9Y4H4: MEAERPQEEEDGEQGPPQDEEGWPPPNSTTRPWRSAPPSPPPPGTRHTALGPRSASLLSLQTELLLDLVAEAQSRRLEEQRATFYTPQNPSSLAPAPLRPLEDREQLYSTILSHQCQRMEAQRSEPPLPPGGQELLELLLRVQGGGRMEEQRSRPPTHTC
UniProt Q14687: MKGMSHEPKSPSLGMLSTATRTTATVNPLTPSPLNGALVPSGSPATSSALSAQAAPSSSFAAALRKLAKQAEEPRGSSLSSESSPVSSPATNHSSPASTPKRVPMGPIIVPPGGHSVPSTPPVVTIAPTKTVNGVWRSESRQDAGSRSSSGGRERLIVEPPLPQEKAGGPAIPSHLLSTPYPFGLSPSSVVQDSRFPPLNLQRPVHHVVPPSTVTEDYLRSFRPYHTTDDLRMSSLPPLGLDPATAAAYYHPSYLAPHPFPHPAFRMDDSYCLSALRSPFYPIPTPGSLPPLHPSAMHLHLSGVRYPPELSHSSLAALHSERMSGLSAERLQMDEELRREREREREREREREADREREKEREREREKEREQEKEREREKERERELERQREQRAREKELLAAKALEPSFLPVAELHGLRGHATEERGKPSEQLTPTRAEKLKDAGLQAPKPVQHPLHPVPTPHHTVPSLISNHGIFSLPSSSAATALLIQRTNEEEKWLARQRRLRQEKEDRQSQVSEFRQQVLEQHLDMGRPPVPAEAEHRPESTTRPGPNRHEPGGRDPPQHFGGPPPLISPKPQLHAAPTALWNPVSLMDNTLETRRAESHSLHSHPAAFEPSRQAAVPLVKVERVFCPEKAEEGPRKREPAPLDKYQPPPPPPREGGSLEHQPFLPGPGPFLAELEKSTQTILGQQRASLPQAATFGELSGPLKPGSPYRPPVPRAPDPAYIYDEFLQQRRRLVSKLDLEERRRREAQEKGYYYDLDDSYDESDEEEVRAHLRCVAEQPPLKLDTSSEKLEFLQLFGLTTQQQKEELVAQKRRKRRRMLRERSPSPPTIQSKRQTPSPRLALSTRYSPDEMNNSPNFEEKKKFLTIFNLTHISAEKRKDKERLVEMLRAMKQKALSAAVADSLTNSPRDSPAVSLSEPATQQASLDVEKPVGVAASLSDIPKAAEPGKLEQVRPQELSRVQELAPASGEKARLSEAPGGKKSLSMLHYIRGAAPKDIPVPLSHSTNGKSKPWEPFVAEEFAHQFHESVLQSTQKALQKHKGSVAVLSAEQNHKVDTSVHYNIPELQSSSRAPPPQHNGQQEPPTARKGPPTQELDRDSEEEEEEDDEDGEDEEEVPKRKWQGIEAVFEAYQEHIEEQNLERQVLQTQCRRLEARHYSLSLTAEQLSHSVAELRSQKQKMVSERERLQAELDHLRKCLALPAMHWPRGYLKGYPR
UniProt I6L899: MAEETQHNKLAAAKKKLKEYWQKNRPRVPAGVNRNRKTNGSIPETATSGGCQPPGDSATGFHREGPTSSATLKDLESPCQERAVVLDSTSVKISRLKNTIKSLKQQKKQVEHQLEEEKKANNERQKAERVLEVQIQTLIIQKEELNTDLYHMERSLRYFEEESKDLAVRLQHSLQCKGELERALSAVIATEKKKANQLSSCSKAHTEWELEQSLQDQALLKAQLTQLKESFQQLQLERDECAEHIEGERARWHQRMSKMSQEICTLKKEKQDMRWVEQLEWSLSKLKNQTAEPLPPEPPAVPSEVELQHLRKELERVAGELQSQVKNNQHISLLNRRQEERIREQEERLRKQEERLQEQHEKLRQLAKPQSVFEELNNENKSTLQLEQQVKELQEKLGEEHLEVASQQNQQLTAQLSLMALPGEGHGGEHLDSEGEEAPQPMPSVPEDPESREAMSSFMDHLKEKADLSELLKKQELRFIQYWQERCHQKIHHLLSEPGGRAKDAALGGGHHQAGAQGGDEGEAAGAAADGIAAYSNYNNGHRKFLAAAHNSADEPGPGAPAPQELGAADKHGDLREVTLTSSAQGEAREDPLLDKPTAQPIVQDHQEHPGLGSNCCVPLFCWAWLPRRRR
UniProt Q9UI32: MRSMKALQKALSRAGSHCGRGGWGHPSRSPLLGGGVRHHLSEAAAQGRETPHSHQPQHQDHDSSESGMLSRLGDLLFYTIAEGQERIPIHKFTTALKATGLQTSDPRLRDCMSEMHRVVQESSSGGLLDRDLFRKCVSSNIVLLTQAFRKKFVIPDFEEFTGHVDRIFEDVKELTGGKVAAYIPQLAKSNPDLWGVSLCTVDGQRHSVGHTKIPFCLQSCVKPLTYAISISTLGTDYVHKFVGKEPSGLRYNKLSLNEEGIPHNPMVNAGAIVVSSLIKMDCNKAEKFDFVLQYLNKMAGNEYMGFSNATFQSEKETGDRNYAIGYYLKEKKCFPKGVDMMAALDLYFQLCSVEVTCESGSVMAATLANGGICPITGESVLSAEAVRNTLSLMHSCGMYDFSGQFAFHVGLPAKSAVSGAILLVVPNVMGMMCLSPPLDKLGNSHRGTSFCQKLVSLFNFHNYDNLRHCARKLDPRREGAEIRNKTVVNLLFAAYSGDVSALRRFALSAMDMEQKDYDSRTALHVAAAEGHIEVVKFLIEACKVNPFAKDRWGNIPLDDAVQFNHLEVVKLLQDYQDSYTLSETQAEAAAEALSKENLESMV
UniProt Q5T7V8: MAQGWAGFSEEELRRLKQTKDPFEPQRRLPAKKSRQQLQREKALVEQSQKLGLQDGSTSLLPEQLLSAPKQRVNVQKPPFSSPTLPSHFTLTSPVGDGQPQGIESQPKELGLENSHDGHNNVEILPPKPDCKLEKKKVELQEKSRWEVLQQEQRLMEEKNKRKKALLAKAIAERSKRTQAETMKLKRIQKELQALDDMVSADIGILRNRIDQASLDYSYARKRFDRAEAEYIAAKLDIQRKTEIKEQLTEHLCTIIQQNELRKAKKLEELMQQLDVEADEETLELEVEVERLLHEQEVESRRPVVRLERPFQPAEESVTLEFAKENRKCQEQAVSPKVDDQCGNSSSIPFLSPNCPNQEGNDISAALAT
UniProt Q9BQQ3: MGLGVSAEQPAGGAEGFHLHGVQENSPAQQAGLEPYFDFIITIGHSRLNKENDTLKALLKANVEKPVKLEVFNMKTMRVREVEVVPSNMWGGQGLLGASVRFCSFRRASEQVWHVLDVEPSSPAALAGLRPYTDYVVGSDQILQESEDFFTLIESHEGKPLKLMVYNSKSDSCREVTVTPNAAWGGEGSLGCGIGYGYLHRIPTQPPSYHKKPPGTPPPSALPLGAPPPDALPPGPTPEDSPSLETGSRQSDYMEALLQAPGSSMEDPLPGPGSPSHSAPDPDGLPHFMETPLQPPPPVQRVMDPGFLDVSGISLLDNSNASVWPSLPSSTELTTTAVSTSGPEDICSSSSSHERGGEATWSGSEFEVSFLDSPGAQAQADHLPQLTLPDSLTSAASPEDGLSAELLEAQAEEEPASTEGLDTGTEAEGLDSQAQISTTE
UniProt Q9BRR8: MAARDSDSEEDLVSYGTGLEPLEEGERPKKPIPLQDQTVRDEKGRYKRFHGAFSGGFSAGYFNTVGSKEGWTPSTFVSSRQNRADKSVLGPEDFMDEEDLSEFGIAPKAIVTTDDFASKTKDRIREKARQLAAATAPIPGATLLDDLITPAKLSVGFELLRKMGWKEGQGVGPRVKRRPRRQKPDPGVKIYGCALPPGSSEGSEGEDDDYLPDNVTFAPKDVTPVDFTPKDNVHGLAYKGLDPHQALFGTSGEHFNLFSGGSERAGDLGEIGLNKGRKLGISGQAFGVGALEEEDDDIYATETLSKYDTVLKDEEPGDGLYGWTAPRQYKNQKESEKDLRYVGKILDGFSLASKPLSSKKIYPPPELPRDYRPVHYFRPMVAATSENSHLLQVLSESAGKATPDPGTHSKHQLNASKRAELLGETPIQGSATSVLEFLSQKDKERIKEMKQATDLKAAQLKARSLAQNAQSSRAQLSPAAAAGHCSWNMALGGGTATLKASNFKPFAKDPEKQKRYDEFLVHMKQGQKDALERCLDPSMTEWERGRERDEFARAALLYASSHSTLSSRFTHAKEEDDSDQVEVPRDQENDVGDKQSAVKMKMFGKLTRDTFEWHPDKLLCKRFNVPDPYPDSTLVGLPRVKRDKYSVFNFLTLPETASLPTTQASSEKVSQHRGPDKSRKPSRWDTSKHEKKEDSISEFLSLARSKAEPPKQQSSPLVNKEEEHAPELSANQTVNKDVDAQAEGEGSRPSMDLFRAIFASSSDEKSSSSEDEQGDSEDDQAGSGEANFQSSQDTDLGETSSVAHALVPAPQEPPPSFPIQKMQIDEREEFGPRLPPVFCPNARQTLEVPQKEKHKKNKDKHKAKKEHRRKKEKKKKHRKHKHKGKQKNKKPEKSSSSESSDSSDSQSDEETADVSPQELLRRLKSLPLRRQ
UniProt Q14161: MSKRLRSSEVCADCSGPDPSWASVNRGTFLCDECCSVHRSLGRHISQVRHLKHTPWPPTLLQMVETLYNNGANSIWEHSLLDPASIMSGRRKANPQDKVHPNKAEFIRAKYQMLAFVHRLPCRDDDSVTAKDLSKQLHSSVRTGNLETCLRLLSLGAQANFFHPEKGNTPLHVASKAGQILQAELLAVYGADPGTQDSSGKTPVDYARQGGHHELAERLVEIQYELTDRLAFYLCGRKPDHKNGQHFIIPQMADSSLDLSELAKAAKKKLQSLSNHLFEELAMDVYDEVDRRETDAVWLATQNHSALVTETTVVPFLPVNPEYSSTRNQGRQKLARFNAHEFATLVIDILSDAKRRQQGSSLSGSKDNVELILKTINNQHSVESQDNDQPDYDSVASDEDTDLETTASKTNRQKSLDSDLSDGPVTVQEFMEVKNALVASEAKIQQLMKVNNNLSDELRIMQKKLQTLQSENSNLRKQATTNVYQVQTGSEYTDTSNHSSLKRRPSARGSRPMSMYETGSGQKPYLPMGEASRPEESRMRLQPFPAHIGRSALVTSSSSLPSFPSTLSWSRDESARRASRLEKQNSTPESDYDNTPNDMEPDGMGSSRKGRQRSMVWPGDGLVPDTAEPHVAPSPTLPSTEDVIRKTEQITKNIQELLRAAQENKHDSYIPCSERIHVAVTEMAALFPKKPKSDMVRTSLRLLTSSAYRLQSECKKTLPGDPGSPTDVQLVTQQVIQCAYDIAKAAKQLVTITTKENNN

Legend:
Assay in all cases: log2 fold change, soluble protein after heating vs DMSO (PISA); higher = thermal stabilisation; K562 cells, 10 uM, 30 min; active = over 0.2 and 3.5 SD of the protein, either way, in both replicates (recomputed)
[1] = compound: Cc1cc(Nc2cc(CN3CCOCC3)c3nc(C)c(Cc4ccc(Cl)cc4F)n3n2)n[nH]1 [gandotinib]
Outline: (§1)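 Soluble protein was defined as the supernatant after 21,000xg for 90 min. It came from K562 cells at 2×10^6 cells/mL given 10 μM compound for 30 min, heated in aliquots for 3 min across 48°C-58°C, pooled, and extracted in PBS with 0.5% NP-40 at 4°C, and was quantified by TMTpro 16plex LC-MS/MS with equalised channel sums. Thermal stability against control samples, from duplicates, is reported as log2 fold change.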

[2] = compound: C[C@H](C1=CC=C(C=C1)C(=O)NC2=C3C=CNC3=NC=C2)N
Outline: as §1

[3] = compound: C[C@H](Nc1ncnc2nc[nH]c12)c1cc2cccc(Cl)c2c(=O)n1-c1ccccc1 [duvelisib]
Outline: as §1

[4] = compound: Cc1cc(SCc2sc(-c3ccc(C(F)(F)F)cc3)nc2C)ccc1OCC(=O)O
Outline: as §1

[5] = compound: CS(=O)(=O)c1ccc(-c2cnc(N)c(C(=O)Nc3ccccc3)n2)cc1
Outline: as §1

[6] = compound: C[C@@H]1COCCN1C2=NC(=NC(=C2)C3(CC3)S(=O)(=O)C)C4=C5C=CNC5=CC=C4
Outline: as §1

[7] = compound: Cc1ccc(C(=O)N(CCCN)[C@@H](c2nc3cc(Cl)ccc3c(=O)n2Cc2ccccc2)C(C)C)cc1 [ispinesib]
Outline: as §1

[8] = compound: Cc1cc(Nc2cc(N3CCN(C)CC3)nc(Sc3ccc(NC(=O)C4CC4)cc3)n2)n[nH]1 [tozasertib]
Outline: as §1

[9] = compound: C[C@@H](Oc1cc(-c2cnn(C3CCNCC3)c2)cnc1N)c1c(Cl)ccc(F)c1Cl [crizotinib]
Outline: as §1

[10] = compound: Cc1ccc(-n2nc(C(C)(C)C)cc2NC(=O)Nc2ccc(OCCN3CCOCC3)c3ccccc23)cc1 [doramapimod]
Outline: as §1

Measured: log2 fold change

GNG12 (UniProt Q9UBI6)
inactive: [1] 0.102

GLE1 (UniProt Q53GS7)
inactive: [2] 0.573 | [3] -0.172 | [4] 0.071

GPCPD1 (UniProt Q9NPB8)
inactive: [5] 0.187 | [6] -0.381 | [2] 0.109 | [3] 0.013 | [1] -0.012 | [4] 0.205 | [7] 0.026

GNMT (UniProt Q14749)
inactive: [5] -0.053 | [2] 0.098 | [3] 0.012 | [1] 0.14 | [8] -0.078 | [4] -0.093 | [7] 0.154

GPR108 (UniProt Q9NPR9)
inactive: [5] 0.046 | [6] -0.035 | [2] -0.006 | [3] 0.033 | [8] 0.002 | [4] -0.071 | [7] -0.041

GPATCH2L (UniProt Q9NWQ4)
inactive: [8] 0.249

GK5 (UniProt Q6ZS86)
inactive: [9] 0.022 | [6] -0.011 | [2] -0.053 | [3] 0.146 | [1] 0.156 | [8] -0.13 | [4] 0.142 | [10] -0.064 | [7] -0.177

GPC4 (UniProt O75487)
inactive: [1] -0.258

GPR68 (UniProt Q15743)
inactive: [9] -0.017 | [10] -0.014 | [7] 0.187

GLTP (UniProt Q9NZD2)
inactive: [5] 0.219 | [2] -0.013 | [1] 0.095 | [8] 0.05 | [7] 0.209

GPNMB (UniProt Q14956)
inactive: [6] -0.151

GPSM3 (UniProt Q9Y4H4)
inactive: [5] 0.161 | [2] -0.128 | [3] 0.256 | [4] 0.114

GPR180 (UniProt Q86V85)
inactive: [5] 0.118 | [6] 0.296 | [2] 0.116 | [3] -0.016 | [1] -0.131 | [8] 0.028 | [4] 0.036

GNL2 (UniProt Q13823)
inactive: [6] -0.186 | [1] 0.089 | [8] -0.171 | [7] -0.041

GNPTG (UniProt Q9UJJ9)
inactive: [9] -0.01 | [6] 0.173 | [2] 0.133 | [3] 0.022 | [1] -0.121 | [8] 0.022 | [4] -0.037 | [10] 0.003 | [7] 0.03

GP6 isoform 3 (UniProt Q9HCN6)
inactive: [9] -0.342 | [2] 0.011 | [10] 0.109

GSE1 (UniProt Q14687)
inactive: [2] 0.008 | [4] -0.046 | [7] -0.066

GOLM1 (UniProt Q8NBJ4)
inactive: [5] -0.103 | [2] 0.124 | [8] -0.102 | [7] -0.084

GOLGA8R (UniProt I6L899)
inactive: [9] -0.009 | [2] -0.059 | [1] 0.324 | [4] -0.067 | [10] 0.108 | [7] -0.038

GPAA1 (UniProt E9PLG8)
inactive: [9] 0.02 | [2] 0.162 | [3] 0.035 | [1] -0.236 | [8] -0.057 | [4] -0.023 | [10] -0.031

GOLGA1 (UniProt Q92805)
inactive: [3] 0.171 | [1] 0.058 | [4] -0.007 | [7] -0.244

GNL3L (UniProt Q9NVN8)
inactive: [1] -0.078

GSDME (UniProt O60443)
inactive: [6] 0.178 | [3] 0.046 | [4] 0.005

GRK6 isoform 2 (UniProt P43250)
inactive: [3] 0.04 | [4] 0.077

GRAMD1A (UniProt Q96CP6)
inactive: [6] 0.091

GPS1 (UniProt A8K070)
inactive: [9] -0.022 | [2] -0.033 | [1] -0.08 | [10] 0.117 | [7] 0.043

GLS2 (UniProt Q9UI32)
inactive: [2] -0.236

GPX3 (UniProt P22352)
inactive: [6] 0.098 | [2] 0.077 | [3] 0.103 | [8] -0.246 | [4] 0.119 | [7] 0.063

GLT8D1 (UniProt Q68CQ7)
inactive: [3] 0.118 | [1] 0.154 | [4] 0.233

GPD1 (UniProt P21695)
inactive: [5] -0.036 | [6] 0.034 | [2] -0.482 | [1] 0.094 | [4] -0.034 | [7] 0.046

Quoted from above (2 entries):
GPR108 (UniProt Q9NPR9)
inactive: [5] 0.046 | [6] -0.035 | [2] -0.006 | [3] 0.033 | [8] 0.002 | [4] -0.071 | [7] -0.041

GPATCH2L (UniProt Q9NWQ4)
inactive: [8] 0.249

Additional entries follow.

GJA1 (UniProt P17302)
inactive: [1] 0.328

GORAB (UniProt Q5T7V8)
inactive: [5] -0.109 | [3] 0.206 | [8] -0.069 | [4] -0.007 | [7] 0

GORASP1 (UniProt Q9BQQ3)
inactive: [6] -0.139 | [2] 0.033 | [3] -0.13 | [4] 0.173

GNL3 (UniProt Q9BVP2)
inactive: [5] 0.126 | [6] -0.009 | [2] 0.065 | [1] 0.098 | [4] -0.053

GINM1 (UniProt Q9NU53)
inactive: [5] -0.155 | [6] -0.127 | [1] 0.016

GOSR1 (UniProt E9PCW1)
inactive: [2] -0.017 | [3] -0.055 | [4] 0.019

GPATCH4 isoform 3 (UniProt Q5T3I0)
inactive: [9] 0.057 | [6] -0.076 | [2] 0.507 | [3] -0.071 | [1] 0.251 | [8] 0.156 | [4] -0.107 | [10] 0.127 | [7] -0.159

GPATCH1 (UniProt Q9BRR8)
inactive: [5] 0.099 | [6] -0.064 | [2] 0.017 | [3] 0.095 | [8] -0.178 | [4] 0.039

GIT2 (UniProt Q14161)
inactive: [9] 0.067 | [6] -0.29 | [2] 0.049 | [3] -0.195 | [4] 0.147 | [10] 0.241
